Reference: patent US20040191926A1 (priority 2001, published 2004)
The structures given here were assigned with low confidence; some may be wrong.

Sequences of proteins named here, by UniProt entry; tags and fusion partners are left off. Residues count along the entry.
UniProt P18031, 1-321 C215S limits assumed: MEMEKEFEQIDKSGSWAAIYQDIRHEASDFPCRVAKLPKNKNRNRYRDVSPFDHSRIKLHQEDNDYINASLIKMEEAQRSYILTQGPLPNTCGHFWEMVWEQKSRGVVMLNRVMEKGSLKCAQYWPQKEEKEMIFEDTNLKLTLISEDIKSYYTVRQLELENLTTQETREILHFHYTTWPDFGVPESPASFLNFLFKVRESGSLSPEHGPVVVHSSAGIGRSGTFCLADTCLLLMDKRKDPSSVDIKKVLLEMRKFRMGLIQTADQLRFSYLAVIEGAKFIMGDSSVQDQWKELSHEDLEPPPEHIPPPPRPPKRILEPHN

Key:
[1] = target: GST-PTP1B/C215S (Homo sapiens, UniProt P18031, C215S); assay: ELISA-based PTP1B ligand screening: displacement of GST-PTP1B/C215S from biotinylated DADEpYL-NH2
[2] = target: PTP1B/C215S (Homo sapiens, UniProt P18031, C215S); assay: Equilibrium dialysis determination of Kd; details: pH 7.0 and 4° C.

SMILES: NC(=O)[C@H](Cc1ccc(OP(=O)(O)O)cc1)NC(=O)[C@H](CC(=O)O)NC(=O)Cc1ccc(OP(=O)(O)O)cc1
- affinity determined by the ELISA assay ([1]; from Table 1 ratio): 30 nM
- effectiveness as PTP1B ligand in ELISA screen ([1]; library members at 250 nM): most effective
- Kd [2]: 32 nM
